Values from PubChem BioAssay AID504764 (Drosophila RNAi Screening Center, 2011).

Aim: 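Knock-downs that raise or lower a Notch target reporter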 (primary screen)
System: Drosophila Kc167 cells
Reagents: long dsRNA against Drosophila genes
Time to read-out: about 5 days (4 days dsRNA, then 24 h after transfection)
Treatment: transfection of constitutively active membrane-tethered Notch lacking the extracellular domain, read 24 h later
Read-out: 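Light from a Notch-responsive E(spl)m3 luciferase reporter under active Notch, with control-promoter and no-Notch reporter wells to normalise; raw counts from paired wells a and b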
Direction: induced reporter light, run 1, well a and induced reporter light, run 1, well b: higher = more light from the Notch target reporter with active Notch; control promoter light, run 1, well a and control promoter light, run 1, well b: higher = more light from the viral control promoter (cell number, transfection, viability); uninduced reporter light, run 1, well a: higher = more light from the Notch target reporter without active Notch
Rule for the call: 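Wells with low control signal or poorly matching duplicates excluded; duplicates averaged; per source plate, z beyond ±2 for induced/control log2 ratio or beyond ±1.8 for induced/uninduced marks a hit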
Calls: active = modifier hit (raised or lowered Notch signal); inactive = not a hit
The screen tested about 22,000 reagents; below is an unselected part of those that have a named target and a result. In the full data, 403 (1.9%) are marked active. 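Unnormalised raw counts per well; ratio z-scores behind the hit calls and whether each hit raises or lowers signal are not deposited.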 The numbers tell different reagents against one gene apart. Names joined by + are all predicted targets of the reagent. The record does not give: the amount of reagent.

target gene	reagent	induced reporter light, run 1, well a	induced reporter light, run 1, well b	control promoter light, run 1, well a	control promoter light, run 1, well b	uninduced reporter light, run 1, well a	outcome
CG43861	1	63010	74895	55530	38615	3050	inactive
zyd (zydeco)	1	95845	91105	95850	1.30e5	10835	inactive
CG8366	1	1.02e5	1.08e5	1.13e5	1.52e5	9945	inactive
Aldh7A1 (Aldehyde dehydrogenase 7 family member A1)	1	1.13e5	1.22e5	72445	75165	7695	inactive
Nup43 (Nucleoporin 43kD)	1	2.47e5	2.62e5	2.85e5	3.07e5	17495	inactive
CG31810	1	60130	53710	66495	54815	5025	inactive
polybromo	1	1.73e5	2.14e5	3.58e5	3.71e5	17885	active
eIF4H2 (eukaryotic translation initiation factor 4H2)	1	1.17e5	1.24e5	1.43e5	1.38e5	10680	inactive
CG13538	1	1.89e5	1.81e5	1.59e5	1.38e5	13735	inactive
ed (echinoid)	1	1.67e5	2.28e5	2.13e5	2.23e5	16545	inactive
ed (echinoid)	2	1.72e5	1.47e5	2.40e5	1.83e5	10350	inactive
ed (echinoid)	3	1.72e5	1.32e5	1.38e5	1.31e5	7185	inactive
ed (echinoid)	4	60585	42820	47005	47130	3615	inactive
Ask1 (Apoptotic signal-regulating kinase 1)	1	1.76e5	1.62e5	1.66e5	1.71e5	13700	inactive
grim	1	38090	34720	21530	21470	4520	inactive
CG12402	1	1.70e5	1.91e5	2.11e5	1.84e5	16490	inactive
slf (schlaff)	1	1.22e5	1.51e5	1.16e5	1.22e5	8365	inactive
Su(Tpl) (Suppressor of Triplolethal)	1	1.04e5	1.23e5	85485	1.10e5	11135	inactive
Myo95E (Myosin 95E)	1	1.90e5	1.87e5	2.05e5	1.98e5	16935	inactive
CG42237	1	1.02e5	1.14e5	1.88e5	1.24e5	7805	inactive

4 entries from above, set out differently:
{"target gene": "CG31810", "reagent": 1, "induced reporter light, run 1, well a": 60130, "induced reporter light, run 1, well b": 53710, "control promoter light, run 1, well a": 66495, "control promoter light, run 1, well b": 54815, "uninduced reporter light, run 1, well a": 5025, "outcome": "inactive"}
{"target gene": "polybromo", "reagent": 1, "induced reporter light, run 1, well a": 1.73e5, "induced reporter light, run 1, well b": 2.14e5, "control promoter light, run 1, well a": 3.58e5, "control promoter light, run 1, well b": 3.71e5, "uninduced reporter light, run 1, well a": 17885, "outcome": "active"}
{"target gene": "eIF4H2 (eukaryotic translation initiation factor 4H2)", "reagent": 1, "induced reporter light, run 1, well a": 1.17e5, "induced reporter light, run 1, well b": 1.24e5, "control promoter light, run 1, well a": 1.43e5, "control promoter light, run 1, well b": 1.38e5, "uninduced reporter light, run 1, well a": 10680, "outcome": "inactive"}
{"target gene": "CG13538", "reagent": 1, "induced reporter light, run 1, well a": 1.89e5, "induced reporter light, run 1, well b": 1.81e5, "control promoter light, run 1, well a": 1.59e5, "control promoter light, run 1, well b": 1.38e5, "uninduced reporter light, run 1, well a": 13735, "outcome": "inactive"}

The results go on:
target gene	reagent	induced reporter light, run 1, well a	induced reporter light, run 1, well b	control promoter light, run 1, well a	control promoter light, run 1, well b	uninduced reporter light, run 1, well a	outcome
Vps52 (Vacuolar protein sorting 52)	1	2.28e5	1.80e5	1.85e5	2.05e5	15425	inactive
CG14443	1	1.67e5	1.61e5	2.60e5	3.07e5	12435	inactive
CG10395	1	2.56e5	2.38e5	1.96e5	2.28e5	18640	inactive
ppk8 (pickpocket 8)	1	75175	82805	1.03e5	1.11e5	6620	inactive
Sardh (Sarcosine dehydrogenase)	1	87615	96075	1.48e5	1.77e5	7455	inactive
Kaz1-ORFB + Kaz1-ORFA	1	1.47e5	1.27e5	2.11e5	2.68e5	12015	inactive
obe (obelus)	1	1.39e5	1.17e5	1.09e5	90765	9945	inactive
CG3337	1	1.70e5	1.73e5	3.27e5	3.23e5	10115	inactive
CG4752	1	2.48e5	2.28e5	2.07e5	2.21e5	17460	inactive
CG5986	1	1.42e5	1.57e5	2.18e5	2.23e5	13240	inactive
CG7791	1	2.35e5	2.17e5	1.71e5	2.44e5	16020	inactive
CG31952	1	1.41e5	1.18e5	1.36e5	1.04e5	7355	inactive
CG31952	2						inactive
RpL4 (Ribosomal protein L4)	1	15890	18465	22180	23710	1005	inactive
Vang (Van Gogh)	1	1.37e5	1.92e5	1.58e5	1.59e5	15985	inactive
CG6688	1	1.36e5	1.28e5	1.93e5	1.58e5	11590	inactive
CG1090	1	1.34e5	1.24e5	83685	88965	9185	inactive
pim (pimples)	1	2.03e5	1.66e5	1.74e5	1.79e5	15550	inactive
CG33552	1	67870	47140	75505	61010	6990	inactive
CG8252	1	1.82e5	1.87e5	2.02e5	1.85e5	16790	inactive
CG10911	1	1.17e5	92755	1.07e5	94550	5820	inactive
nmdyn-D7	1	76930	80755	89425	64155	5620	inactive
Ost48 (Oligosaccharyltransferase 48kD subunit)	1	2.36e5	2.19e5	2.51e5	2.42e5	16390	inactive
ddbt (deadbeat)	1	2.35e5	2.00e5	1.94e5	1.68e5	16565	inactive
Rab30	1	1.44e5	1.27e5	1.65e5	1.75e5	9585	inactive
Hel25E (Helicase at 25E)	1	10845	10825	9875	9850	842	inactive
Gr10b (Gustatory receptor 10b)	1	1.28e5	1.11e5	1.38e5	1.59e5	8095	inactive
PolE2 (DNA polymerase epsilon subunit 2)	1	89820	1.11e5	77860	29000	9790	inactive
Alp1 (Alkaline phosphatase 1)	1	1.04e5	1.16e5	61995	78610	9550	inactive
Trpml + CG42638	1	1.01e5	78385	69415	74725	7850	inactive
